Data taken from PubChem BioAssay AID1671190 (National Center for Advancing Translational Sciences (NCATS), 2021).
In all, about 580,000 compounds went through this assay and about 6,100 (1.1%) were called active. This list was built around the results that the source calls inconclusive (neither active nor inactive); the mix of calls is not that of the screen. Calls follow the shape of the dose curve; as a rule, active = well fitted inhibition curve with a large enough effect; inconclusive = small, poorly fitted or top-dose-only effect, or another doubt; inactive = no such curve, though single readings can be large or run the other way. Where the call is inconclusive, the potency comes from a doubtful curve fit.

The chains behind the UniProt entries cited, without tags or fusion partners. Where a name states a change or a piece, a line headed by the entry shows the natural chain unless it says otherwise.
UniProt P18054: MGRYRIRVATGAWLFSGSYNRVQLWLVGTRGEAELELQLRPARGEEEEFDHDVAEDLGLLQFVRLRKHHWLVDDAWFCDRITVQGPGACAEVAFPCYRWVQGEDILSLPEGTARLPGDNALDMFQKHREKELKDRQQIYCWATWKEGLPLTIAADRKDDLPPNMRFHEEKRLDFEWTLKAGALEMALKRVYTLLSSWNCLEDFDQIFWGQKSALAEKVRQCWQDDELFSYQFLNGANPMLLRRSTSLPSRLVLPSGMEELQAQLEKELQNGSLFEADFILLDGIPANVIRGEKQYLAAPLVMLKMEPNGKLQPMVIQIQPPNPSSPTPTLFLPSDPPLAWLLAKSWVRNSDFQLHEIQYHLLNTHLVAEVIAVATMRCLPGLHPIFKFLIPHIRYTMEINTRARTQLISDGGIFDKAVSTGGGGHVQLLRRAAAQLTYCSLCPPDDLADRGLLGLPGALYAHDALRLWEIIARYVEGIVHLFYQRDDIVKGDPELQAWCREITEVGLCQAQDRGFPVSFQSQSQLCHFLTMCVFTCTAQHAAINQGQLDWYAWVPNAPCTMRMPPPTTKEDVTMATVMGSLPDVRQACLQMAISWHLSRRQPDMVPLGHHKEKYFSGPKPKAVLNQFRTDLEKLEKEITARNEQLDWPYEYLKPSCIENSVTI

Each compound was assayed against Polyunsaturated fatty acid lipoxygenase ALOX12 (Homo sapiens) (UniProt P18054) (assay: Primary qHTS assay for inhibitors of human arachidonate 12S-lipoxygenase (ALOX12): Round 2). Settings: purified 12hLO, xylenol orange hydroperoxide absorbance; series mostly up to 108 µM.
Outline: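 Purified human 12hLO at 150 nM in 25 mM Hepes, 0.01% Triton X-100, pH 7.0, preincubated 15 min at room temperature with compound. Reaction started with 40 uM arachidonic acid, 30 min at room temperature. Hydroperoxide measured by Fe-xylenol orange, 573/405 nm absorbance ratio.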
Potency is read from the fitted curve at half-maximal effect.

Row | SMILES | Potency
1 | CC(=O)NC(c1ccc(Cl)cc1)c1c(O)ccc2ccc(O)cc12 (configuration not stated) | inconclusive: 79.4 µM [inhibitor, partial curve, poor fit]
2 | O=S(=O)(c1cccc(Cl)c1)n1c(/C=C/c2ccccc2Cl)nc2ccccc21 | inconclusive: 56.2 µM [inhibitor, partial curve, poor fit]
3 | Fc1cccc(Cc2c(-c3ccccc3)nc3ccc(Cl)cn23)c1 | inconclusive: 25.1 µM [inhibitor, single point]
4 | O=C(NCc1ccc(F)cc1)N1CC(c2nnc(-c3ccncc3)o2)C2(CCOCC2)C1 (configuration not stated) | inconclusive: 8.91 µM [inhibitor, full curve]
5 | COc1ccc(C(=O)N[C@@H]2CCC[C@@H]2C(=O)N2CCN(c3cc(C)ccc3C)CC2)cc1 | inactive
6 | O=C(NC1CC1)[C@@H]1CN(Cc2cc(F)c(F)cc2F)C[C@H]1CO | inactive
7 | COc1ccccc1NC(=O)c1cc(=O)[nH]c2ccccc12 | inconclusive: 50.1 µM [inhibitor, partial curve, poor fit]
8 | CCc1nc(N)c(C#N)c(-c2ccc(Br)s2)c1C | inactive
9 | Cc1ccc(C(=O)/C=C\N(C)C)cc1C | inconclusive: 20 µM [inhibitor, partial curve, poor fit]
10 | COc1ccc(-c2cc(OC(=O)c3cccc(Cl)c3)c3c(C)oc(C)c3c(=O)c2)cc1OC | inconclusive: 100 µM [inhibitor, partial curve, poor fit]
11 | O=C(C1=C[C@H](C2CC2)C[C@H](OCCCCO)O1)N1CCN(Cc2ccc3c(c2)OCO3)CC1 | inconclusive: 35.5 µM [inhibitor, partial curve, poor fit]
12 | O=C(NC[C@H]1O[C@@H](CO)[C@@H](O)[C@H]1N1CCN(c2cccc(C(F)(F)F)c2)CC1)Nc1ccccc1 | inconclusive: 11.2 µM [inhibitor, full curve, poor fit]
13 | Cc1ccc(C(=O)c2c(NC(=O)c3ccccc3)sc(C)c2C)cc1 | inconclusive: 70.8 µM [inhibitor, partial curve, poor fit]
14 | CCOC(=O)c1c(C)c2ccccc2n2cc(CN3CCOCC3)c(C#N)c12 | inconclusive: 31.6 µM [inhibitor, partial curve, poor fit]
15 | COc1ccc(/C=C/c2cc(OC)c(OC)cc2CC[N+](C)(C)C)cc1 | inactive
16 | Cc1cc(NC(=O)COc2ccc(C)c(C)c2)no1 | inactive
17 | CCCS(=O)(=O)n1nc(-c2ccccc2)cc1N | inactive
18 | N#Cc1ccccc1OCCOCCNC1CCCC1 | inconclusive: 4.47 µM [inhibitor, full curve, poor fit]
19 | O=C(Nc1ccc(Cl)c(C(F)(F)F)c1)C1Cc2c(-c3ccccc3)ccnc2O1 (configuration not stated) | inconclusive: 39.8 µM [inhibitor, partial curve, poor fit]
20 | COc1ccc(C2/C(=C(/O)c3ccc(C)cc3)C(=O)C(=O)N2CC2CCCO2)cc1OC (configuration not stated) | inconclusive: 50.1 µM [inhibitor, partial curve, poor fit]
21 | CC1CCc2c(nc3ccc4ccccc4c3c2-c2cccc(O)c2)C1 (configuration not stated) | active: 4.47 µM

Row | SMILES | Potency
22 | N#Cc1nc(/C=C/c2ccc(F)cc2)oc1N1CCCCCC1 | inconclusive: 100 µM [inhibitor, partial curve, poor fit]
23 | COc1ccccc1/C=C/CN1CCOCC1 | inconclusive: 1 µM [inhibitor, full curve, poor fit]
24 | COC(=O)/C=C/C(=O)Nc1cc(Cl)ccc1O | inconclusive: 17.8 µM [inhibitor, partial curve, poor fit]
25 | COc1ccc(NS(=O)(=O)c2ccc(F)c(Cl)c2)cn1 | inconclusive: 89.1 µM [inhibitor, single point]
26 | CCN(CC)c1ccc(NC(=O)Cn2nc3c(cc2=O)CCCC3)c(C)c1 | inconclusive: 141 µM [inhibitor, partial curve, poor fit]
27 | CN(c1ccccc1)c1ccc2nnc(-c3cc(C(=O)NC4CCOCC4)ccn3)n2n1 | inconclusive: 22.4 µM [inhibitor, full curve, poor fit]
28 | CSc1ccc(/C=C(/C#N)C(=O)C(C)(C)C)cc1 | inactive
29 | Cc1noc(C)c1NC(=O)N[C@@H]1C[C@H](Cn2cc(-c3cccnc3)nn2)[C@@H](O)[C@H]1O | inconclusive: 14.1 µM [inhibitor, full curve]
30 | COc1cccc(NC(=S)N(Cc2ccc(Cl)cc2)Cc2ccc(C(=O)O)cc2)c1 | active: 39.8 µM
31 | Cc1cc2nnc(SCC(=O)NCc3ccco3)n2c2ccccc12 | inactive
32 | O=C1CCCC(O)=C1N=Nc1ccc(C(=O)O)cc1 | inconclusive: 79.4 µM [inhibitor, partial curve, poor fit]
33 | O=C(N[C@@H]1CN(C(=O)NC2CCCCC2)CCC[C@H]1O)c1ccc(OCCN2CCOCC2)cc1 | inconclusive: 11.2 µM [inhibitor, partial curve, poor fit]
34 | O=C(c1ccc(F)cc1)N1CCC2(CC1)C(=O)NCN2Cc1ccc(Cl)cc1 | inconclusive: 39.8 µM [inhibitor, partial curve]
35 | COc1ccc(CNC(=O)C2CCC(=O)N(C3CCCCCC3)C2)c(OC)c1 (configuration not stated) | inactive
36 | Cc1nn(C(C)C(=O)NC2C(=O)N3C(C(=O)O)=C(CSc4nnnn4C)CSC23)cc1Cl (configuration not stated) | inactive
37 | O=C(Cc1cccc(F)c1F)NC1CCCN(Cc2ccc(Cl)cc2)C1 (configuration not stated) | inconclusive: 44.7 µM [inhibitor, partial curve, poor fit]
38 | S=C(Nc1ccc(Oc2ccccc2)cc1)NC1CCCCCC1 | active: 28.2 µM
39 | CCNC(=O)C(C)(C)Oc1nn(Cc2cccc(Cl)c2)c2ccccc12 | inconclusive: 112 µM [inhibitor, partial curve, poor fit]
40 | CC(C)Oc1ccc(C(=O)Nc2nnc3n2CCS3)cc1 | inactive
41 | CC1CCc2nc3ccccc3c(C(=O)Nc3ccc(Br)cc3F)c2C1 (configuration not stated) | inconclusive: 44.7 µM [inhibitor, partial curve, poor fit]
42 | COc1cccc(CN(C)C(=O)c2cn(Cc3ccc(Cl)cc3)nn2)c1 | inconclusive: 10 µM [inhibitor, full curve]

Single values from the entries so far:
Entry for `Cc1nn(C(C)C(=O)NC2C(=O)N3C(C(=O)O)=C(CSc4nnnn4C)CSC23)cc1Cl` (configuration not stated) under Potency: inactive
Entry for `O=C(Cc1cccc(F)c1F)NC1CCCN(Cc2ccc(Cl)cc2)C1` (configuration not stated) under Potency: inconclusive: 44.7 µM [inhibitor, partial curve, poor fit]
